In paper PMC11134387, “Cancer-Stem-Cell Phenotype-Guided Discovery of a Microbiota-Inspired Synthetic Compound Targeting NPM1 for Leukemia” (JACS Au, 2024):

Test system: CD34+ cells from healthy donors
Assay: 1D-nano LC ESI-MSMS proteomic analysis of CD34+ cells
Assay type: cell-based, Homo sapiens

COc1ccc(C2Cc3[nH]c4ccccc4c3C(CCNCC3CC3)C2N)cc1 (centres unmarked) [4b, 4-{2-[(Cyclopropylmethyl)amino]ethyl}-2-(4-methoxyphenyl)-2,3,4,9-tetrahydro-1H-carbazol-3-amine]
Number of proteins that disappeared completely after treatment (CD34+ cells, 5 μM, 24 h): 340 | F/C P11413-2¦G6PD_HUMAN (DMSO vs SL369): PRESEN/AUSEN | F/C P11413¦G6PD_HUMAN (DMSO vs SL369): PRESEN/AUSEN | F/C P22392¦NDKB_HUMAN (DMSO vs SL369): PRESEN/AUSEN | F/C Q14980-2¦NUMA1_HUMAN (DMSO vs SL369): PRESEN/AUSEN
